Reference: publication PMC5461520
Results are given in words; binding and its absence hold for the method and conditions named. In cells and extracts the contact can be indirect. Some binding calls cover weakened binding; strength is not graded here.

By UniProt entry, the sequences of proteins in these tests, tags left out. Residues count along the entry.
UniProt P18510, residues 26-177: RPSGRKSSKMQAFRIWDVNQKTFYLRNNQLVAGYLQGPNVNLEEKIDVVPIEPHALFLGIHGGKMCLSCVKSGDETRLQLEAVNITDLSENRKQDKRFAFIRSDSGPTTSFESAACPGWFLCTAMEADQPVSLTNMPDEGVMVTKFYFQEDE

Molecular target: T1, IL-18 receptor alpha unit (human (endogenous in KG-1 and healthy control monocytes)) (UniProt Q13478)
T1 sequence: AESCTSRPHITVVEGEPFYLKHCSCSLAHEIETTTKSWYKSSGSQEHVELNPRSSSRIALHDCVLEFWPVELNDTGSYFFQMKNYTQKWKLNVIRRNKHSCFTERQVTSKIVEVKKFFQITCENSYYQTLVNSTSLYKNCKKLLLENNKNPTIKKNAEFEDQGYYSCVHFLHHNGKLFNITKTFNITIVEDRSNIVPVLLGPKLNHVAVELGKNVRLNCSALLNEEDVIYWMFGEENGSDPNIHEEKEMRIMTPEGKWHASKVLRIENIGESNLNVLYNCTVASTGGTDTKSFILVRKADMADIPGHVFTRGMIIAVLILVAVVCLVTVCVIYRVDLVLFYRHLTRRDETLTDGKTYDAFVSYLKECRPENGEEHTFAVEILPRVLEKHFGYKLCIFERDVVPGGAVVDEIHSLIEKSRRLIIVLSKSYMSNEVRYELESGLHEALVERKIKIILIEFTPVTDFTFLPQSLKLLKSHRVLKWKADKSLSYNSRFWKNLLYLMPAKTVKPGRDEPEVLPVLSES
Assay: co-IP; IL-18 sensitive myelomonocytic cell line (KG-1) and healthy control monocytes; western blotting and immunoprecipitation; no further conditions given; only the binder purified

With “recombinant IL-1 receptor antagonist (rIL-1RA) (from UniProt P18510 26-177) (ligand)” the binding was “binds”.
